These results are taken from article PMC10204870, “Analysis of aptamer-target binding and molecular mechanisms by thermofluorimetric analysis and molecular dynamics simulation”.

Amino acid sequences for entries named in this document (tags omitted). Residues count along the entry.
UniProt P02771, 19-609: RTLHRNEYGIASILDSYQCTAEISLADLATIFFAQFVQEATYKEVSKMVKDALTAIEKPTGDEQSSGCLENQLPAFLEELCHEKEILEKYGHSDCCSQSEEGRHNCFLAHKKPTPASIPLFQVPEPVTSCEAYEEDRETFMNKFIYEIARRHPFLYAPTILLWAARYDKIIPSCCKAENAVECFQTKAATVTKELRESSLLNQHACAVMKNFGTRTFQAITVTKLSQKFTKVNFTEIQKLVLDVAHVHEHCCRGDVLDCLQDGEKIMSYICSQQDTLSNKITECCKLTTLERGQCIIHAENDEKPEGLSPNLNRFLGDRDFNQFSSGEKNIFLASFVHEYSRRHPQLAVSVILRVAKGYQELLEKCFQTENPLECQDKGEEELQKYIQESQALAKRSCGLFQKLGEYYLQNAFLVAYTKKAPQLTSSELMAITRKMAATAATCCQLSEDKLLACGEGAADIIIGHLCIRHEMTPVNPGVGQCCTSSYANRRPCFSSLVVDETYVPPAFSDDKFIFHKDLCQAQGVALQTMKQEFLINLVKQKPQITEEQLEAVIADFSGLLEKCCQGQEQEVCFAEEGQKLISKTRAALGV

The data set deals with alpha-fetoprotein (AFP) (Homo sapiens) (UniProt P02771). Briefly: thermofluorimetric analysis (EvaGreen melting curves). The conditions noted are these: 20 mM HEPES-Na, 120 mM NaCl, 4 mM KCl, 2 mM MgCl2, 1 mM CaCl2, pH 7.35 (aptamer diluent), 30 min at room temperature, then melt 4-80 C with EvaGreen, AFP stock 1.45 nM, recombinant protein, label: EvaGreen dye (non-covalent), single-stranded DNA.

A weaker result is weaker than the reference pair of the same experiment. For at least one entry, the source does not settle the construct or the ends of the probe.

Turning to “ACCGACCGTGCTGGACTCTGTCGAAAGGATACTGAGTATTGAGGGGCGTCAGGTGGAAGAGTATGAGCGAGCGTTGCG [AP-L3-4]”, the binding result (1.25-80 nM and 1-5 nM aptamer, HEPES buffer with Na+, K+, Mg2+, Ca2+, bound peak weaker than AP273) is “binds more weakly”.

Turning to “GTGACGCTCCTAACGCTGACTCAGGTGCAGTTCTCGACTCGGTCTTGATGTGGGTCCTGTCCGTCCGAACCAATC [AP273]”, the binding result was “binds more weakly” (HEPES buffer 4 (highest ionic strength, lowest Tm), 4 nM aptamer, 1.45 nM AFP) and “binds more weakly” (HEPES buffer 9, less favorable than buffer 6).
